The assay concerns GUMC-403. Nature of the assay: viability at highest tested concentration (max response) relative to DMSO (% of DMSO control); higher = less cytotoxic. The note with it: library / dose series: MIPE library, 11-point 1:3 dilution; top concentration 46.1 µM; 48 h. Put shortly: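 Patient-derived GUMC-403 papilloma cells grown by conditional reprogramming were plated at 700/well in 5 μL F + Y medium in 1536-well plates and incubated overnight at 37 °C. They then received 23 nL of MIPE 4.0 compounds by pin tool (11-point 1:3 series) for 48 h. CellTiter-Glo luminescence was read on a ViewLux and normalised with DMSO wells as 100% and empty wells as 0%. The value is viability at the highest tested concentration relative to DMSO control.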

In turn, `CC1=C(C=CC=C1)N2C(=O)C3=C(C=CC=C3C)\N=C2\C[N]4N=C(C5=CC(=CC=C5)O)C6=C(N)N=CN=C46` came in with a viability of 109.
The compound `COC(=O)[C@H](CCCNC(=N)N)N[S+](=O)([O-])c1ccc(C)cc1` came in with a viability of 117.

Source of the values: the supplement of paper PMC6723410.
